These are yes or no findings as the source states them, for the method shown. Some entries that bind do so weakly or less than the wild type. Sequences can lack the tags named with a protein.
Experiments:
[1] = biological target: T1, BTNL3+BTNL8 co-expressed on HEK293T cells (Flag-BTNL3+HA-BTNL8) (human) (UniProt Q6UXE8+Q6UX41); experiment: recombinant TCR experiments on BTNL3/8 over-expressing cells
T1 sequence (looked up) 1: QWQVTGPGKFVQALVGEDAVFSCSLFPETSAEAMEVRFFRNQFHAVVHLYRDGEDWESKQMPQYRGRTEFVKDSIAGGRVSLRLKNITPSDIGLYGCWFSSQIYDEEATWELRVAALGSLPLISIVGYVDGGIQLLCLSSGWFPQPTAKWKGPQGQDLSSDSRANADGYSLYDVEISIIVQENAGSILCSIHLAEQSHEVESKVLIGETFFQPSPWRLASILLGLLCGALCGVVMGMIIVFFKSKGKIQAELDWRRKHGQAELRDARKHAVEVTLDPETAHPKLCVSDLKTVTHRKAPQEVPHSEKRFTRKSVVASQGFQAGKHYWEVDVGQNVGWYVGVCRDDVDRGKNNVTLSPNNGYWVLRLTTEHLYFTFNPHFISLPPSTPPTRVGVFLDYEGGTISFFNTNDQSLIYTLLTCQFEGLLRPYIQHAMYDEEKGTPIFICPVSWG
T1 sequence (looked up) 2: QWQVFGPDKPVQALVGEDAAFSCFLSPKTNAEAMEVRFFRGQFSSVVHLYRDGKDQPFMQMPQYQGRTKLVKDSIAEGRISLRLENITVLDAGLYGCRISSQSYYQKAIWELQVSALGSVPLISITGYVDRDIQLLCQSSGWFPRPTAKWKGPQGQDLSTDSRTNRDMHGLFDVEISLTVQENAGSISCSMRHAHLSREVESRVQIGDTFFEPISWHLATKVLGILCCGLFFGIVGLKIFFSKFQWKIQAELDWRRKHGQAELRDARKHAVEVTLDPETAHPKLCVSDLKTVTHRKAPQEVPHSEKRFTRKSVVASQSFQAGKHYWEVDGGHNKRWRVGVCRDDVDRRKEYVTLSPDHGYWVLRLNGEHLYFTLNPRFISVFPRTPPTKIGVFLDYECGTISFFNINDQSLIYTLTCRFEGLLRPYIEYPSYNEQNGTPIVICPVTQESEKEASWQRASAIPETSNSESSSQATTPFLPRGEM

[2] = biological target: T1, BTNL3+BTNL8 co-expressed on HEK293T cells (Flag-BTNL3+HA-BTNL8) (human); experiment: staining of transduced cells with soluble TCR (FIG. 10 legend)
[3] = biological target: T1, BTNL3+BTNL8 co-expressed on HEK293T cells (Flag-BTNL3+HA-BTNL8) (human); experiment: recombinant TCR incubated with a cell line over-expressing BTNL3/8
[4] = biological target: T1, BTNL3+BTNL8 co-expressed on HEK293T cells (Flag-BTNL3+HA-BTNL8) (human); experiment: flow cytometry staining of HEK293T cells transduced with Flag-BTNL3+HA-BTNL8
[5] = biological target: T1, BTNL3+BTNL8 co-expressed on HEK293T cells (Flag-BTNL3+HA-BTNL8) (human); experiment: Image Cytometry of 293T.L3L8 cells incubated with soluble TCR pre-labeled with APC α-His antibody
[6] = biological target: T1, BTNL3+BTNL8 co-expressed on HEK293T cells (Flag-BTNL3+HA-BTNL8) (human); experiment: flow cytometry, transduced HEK293T cells stained with soluble His-tagged TCR then APC anti-His at 4° C.

Measured: binding

B1: Vγ4/Vδ2 soluble TCR heterodimer (TCR, V domains shown)
V domain 1: SSNLEGRTKSVIRQTGSSAEITCDLAEGSTGYIHWYLHQEGKAPQRLLYYDSYTSSVVLESGISPGKYDTYGSTRKNLRMILRNLIENDSGVYYCATWDEKYYKKLFGSGTTLVVTE
V domain 2: AIELVPEHQTVPVSIGVPATLRCSMKGEAIGNYYINWYRKTQGNTITFIYREKDIYGPGFKDNFQGDIDIAKNLAVLKILAPSERDEGSYYCALGESLTRADKLIFGKGTRVTVEP
binds: all assays above
